From PubChem BioAssay AID1347426 (Functional Genomics Laboratory (NCATS/FGL), 2020)
Hit rate of the full screen: of about 31,000 sequences, about 1,400 (4.5%) were called active.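 How the source made its calls: active means median seed-adjusted z-score above 1 or below -1; inactive means the rest.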 Some of the results follow.

Test: Novel Modifiers of Survival Motor Neuron (SMN) Protein: Gene Identification via Genome-wide siRNA Screen;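 further: luminescence tracks full-length SMN protein made from the SMN2 reporter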
Details: HEK293T SMN2-luciferase reporter, siRNA knockdown, 72 h; actives lie on both sides
In short: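 HEK293T cells stably expressing an SMN2 splicing/cDNA-luciferase reporter were reverse-transfected with a druggable-genome siRNA library and read by luminescence at 72 hours; hits defined by MAD score above 1.0 or below -1.0.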

| Sequence | median seed-adjusted z-score |
| --- | --- |
| GUACUCAUCUUUUACCUAATT against LMBR1L | inactive: 0.349 |
| GGAGGUGUUUGACAAGCGATT against SMPD3 | inactive: -0.0115 |
| AGCCUUCAGUGGUCAGUCATT against ZNF702 | inactive: 0.204 |
| GAUUAAUCCUUCAAUGAUUTT against TAF9B | inactive: -0.0247 |
| CUGUAGAACUAGUCCUUAUTT against PRKRIR | inactive: 0 |
| GGACAGAGCAAAAACUUCUTT against DYRK4 | inactive: -0.824 |
| GCGUUGACCAAGACUCAUATT against TP53BP2 | inactive: 0.157 |
| GAUCUUUCCUCAGUGGAGATT against PARP9 | inactive: -0.526 |
| GAGCUCCAUUGGUAAAUUUTT against ANAPC10 | inactive: 0.946 |
| GCAUGGUACUCUAUAGUCUTT against FAT4 | inactive: -0.363 |
| GAUAUCUUCCAAAACGAAATT against BLM | inactive: -0.0654 |
| GAAUCUGUCUUAGAUCUCATT against PRDM2 | active: 1.12 |
| GGCAGACUCUCUAUGAACATT against TFR2 | inactive: 0.965 |
| CGCACGAUAUUGAGGAGAATT against 9-Sep | inactive: -0.0175 |
| CCAGCACGUUGGAAGACCATT against ZNF808 | inactive: 0.138 |
| CCAUAAAUGCUACGAAUAUTT against EGFR | inactive: 0.263 |
| UGGUGUUGAUCGGAAUCUATT against SLC12A9 | inactive: -0.0853 |
| CAUAACAACUUCUACCGAATT against ABHD6 | inactive: 0 |
| CCUUCGCUAUGCUGACAGATT against KIF4A | inactive: -0.156 |
| CGCUGGAUGUUGCAGGAUATT against TRIM68 | inactive: -0.628 |
| GGAUUGCUACAAGAACUUUTT against FHL1 | inactive: 0.574 |
| GGAAGCAAUUAAUUACACUTT against ARSK | inactive: -0.00229 |
| GGAAUAAUGCUGACCAAGATT against GART | inactive: -0.414 |
| GGUUCACAAUCUAUACAGUTT against JMJD1B | inactive: 0.402 |
| CUCUCACAGUGGCCUGUAATT against S100A1 | inactive: 0 |
| GCUGCAAAAUCCGAUGAGATT against HSPB1 | inactive: 0.693 |
| GGUGAUAACUCAUCCUGUATT against ZFP28 | inactive: 0.275 |

| Sequence | median seed-adjusted z-score |
| --- | --- |
| GAAGAUCUAUUUUGCGGAUTT against PSMC3IP | inactive: -0.0482 |
| GAGUCUGCGUUAUCGACAATT against TPR | active: -1.03 |
| GAGCAAGAGUUUAACCGGUTT against AOF2 | inactive: -0.215 |
| CGUUAUGUUUUUACCCUAUTT against CATSPER3 | inactive: 0.685 |
| GCAUGACCUUCAUCGUACATT against SLC34A2 | inactive: 0 |
| GGAUCGUCAUGUAUACUUATT against GPRC5C | inactive: 0.498 |
| CGAACAAGAUGACCAGGUATT against ARRB2 | inactive: -0.153 |
| CCGCAAAACUCCUACAGCATT against HDAC5 | inactive: -0.342 |
| AGGAUACAUUGGAAAAGAUTT against SMYD1 | inactive: -0.0827 |
| CCAGUAUCUUGAUAUCAGUTT against TLR1 | inactive: 0 |
| GCCUGGUUUUGGAUACAAATT against LTA4H | inactive: -0.742 |
| CGACCAGGCUAACACGCUUTT against KCNN1 | inactive: -0.347 |
| CCGUGCUAUUCAUCGCAAATT against ACTR1B | inactive: -0.18 |
| CAACGACAGCAGUCCCAUUTT against EGR1 | inactive: 0.0836 |
| GCCGAAUUGUUUCUAGUUATT against PIN1 | inactive: 0.156 |
| GGUGAUCCCUGAGCAUCUATT against AS3MT | inactive: -0.74 |
| GGAAACUCGUCGUUCAAUATT against IL13RA1 | inactive: 0.269 |
| GGACUGUUCAUGUAGUACATT against ELF1 | inactive: 0.0269 |
| GACCUCGAAUGAAUGCGAATT against CRY1 | inactive: 0.0564 |
| CCAGGUGUAUUCAAUGGAATT against FMO3 | inactive: -0.0769 |
| GAGCAAAGGGUAUCCGGAATT against PIAS3 | inactive: -0.216 |
| GCAGUCGGCUUUGAUUAUATT against HCLS1 | inactive: 0.107 |
| CAACAAGUGUAACGACGAUTT against SMPD3 | inactive: -0.0115 |
| UGAUGGAGAUCGUCACCUATT against HCK | inactive: -0.48 |
| GGGUAUGAGAUAUGCGGUATT against TYW1 | inactive: 0.201 |
| CAUCGAAACUUUACCUAAATT against NAP1L4 | inactive: -0.244 |
| GGUACAAGCUCGAGGUAUATT against B4GALT6 | inactive: 0.224 |

Single entries from the results shown.
Entry of CCGCAAAACUCCUACAGCATT against HDAC5 under median seed-adjusted z-score: inactive: -0.342
Entry of GAGUCUGCGUUAUCGACAATT against TPR under median seed-adjusted z-score: active: -1.03
Entry of CGCUGGAUGUUGCAGGAUATT against TRIM68 under median seed-adjusted z-score: inactive: -0.628
